PubChem BioAssay AID1224828 | NIAID, 2016
Shown is one part, drawn at random, of about 17,000 reagents tested. 762 of all reagents (4.5%) were called active. 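Active calls include both raised and lowered p65 entry, mostly lowered; wells with fewer than 50 cells lack a z-score.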 The raw values are shown without normalisation.

Purpose: 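Regulators linking TLR4 signalling to p65 nuclear translocation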 (primary screen)
Cells: mouse RAW264.7 G9 macrophage reporter cells (GFP-p65, Tnf promoter-mCherry)
Reagents: siRNA pool against mouse genes, 100 nM
Time to read-out: 2 days siRNA transfection, then 40 min LPS before fixation
Challenge: LPS (Salmonella minnesota R595) at 10 ng/ml
Measurement: 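Microscopy ratio of nuclear to perinuclear-ring GFP-p65 signal, scaled to the plate median; gene score is the average of two replicate robust z-scores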
Reading the numbers: p65 translocation robust z-score: higher = more nuclear NF-kappaB p65 after LPS than the plate median; nuclear/cytoplasmic p65 ratio: higher = more nuclear NF-kappaB p65
Call rule: 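Active if robust z is above 3.3 (negative regulators) or below -1.56, the Tlr4 control median (positive regulators); activity score 50 or more; control wells not called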
Calls: active = hit (p65 shift raised or lowered); inactive = no clear change

no.	gene	p65 translocation robust z-score	nuclear/cytoplasmic p65 ratio, rep 1	nuclear/cytoplasmic p65 ratio, rep 2	low cell count flag	activity call
1	Otud5		1.53	1.13	fewer than 50 cells per well; well left out of scoring	inactive
2	Plxnb1	-0.61	1.42	1.32	enough cells to score	inactive
3	Ncoa2	-0.03	1.46	1.34	enough cells to score	inactive
4	Zbtb35		1.56	1.23	fewer than 50 cells per well; well left out of scoring	inactive
5	Olig3	-0.04	1.47	1.38	enough cells to score	inactive
6	Ddit3	0.96	1.61	1.5	enough cells to score	inactive
7	Spmip5		1.29	1.1	fewer than 50 cells per well; well left out of scoring	inactive
8	Pik3c2g	-2.16	1.22	1.2	enough cells to score	active
9	Atp2a3	-0.69	1.55	1.48	enough cells to score	inactive
10	Areg	0.72	1.59	1.86	enough cells to score	inactive
11	Tstd2		1.92	1.88	fewer than 50 cells per well; well left out of scoring	inactive
12	Zscan21	-1.68	1.15	1.09	enough cells to score	active
13	Hspa13	-0.07	1.49	1.6	enough cells to score	inactive
14	As3mt		1.44	1.12	fewer than 50 cells per well; well left out of scoring	inactive
15	Msl3l2	1.52	1.59	1.47	enough cells to score	inactive
16	Adamts7	-1.34	1.41	1.42	enough cells to score	inactive
17	Gm20555		1.7	1.42	fewer than 50 cells per well; well left out of scoring	inactive
18	Atp13a1	0.92	1.74	1.77	enough cells to score	inactive
19	Nol3	-0.3	1.43	1.35	enough cells to score	inactive
20	Poglut3	-0.41	1.2	1.25	enough cells to score	inactive
21	Or7g35		1.25	1.46	fewer than 50 cells per well; well left out of scoring	inactive
22	Igf2bp2	-0.59	1.57	1.48	enough cells to score	inactive
23	Ctc1	-0.29	1.41	1.49	enough cells to score	inactive
24	Nadk	0.1	1.71	1.4	enough cells to score	inactive
25	Boc		1.36	1.54	fewer than 50 cells per well; well left out of scoring	inactive
26	Ppp5c	-1.37	1.35	1.19	enough cells to score	inactive
27	Ahdc1	1.01	1.64	2.04	enough cells to score	inactive
28	Pcdha11	-0.05	1.48	1.2	enough cells to score	inactive
29	Morc1	0.7	1.9	1.7	enough cells to score	inactive
30	Arhgap6	0.14	1.54	1.73	enough cells to score	inactive
31	Stk17b	0.68	2.34	1.47	enough cells to score	inactive
32	Mis18bp1	0.7	1.62	1.99	enough cells to score	inactive
33	Or14j7	0.02	1.62	1.42	enough cells to score	inactive
34	Slc68a1	-0.14	1.26	1.28	enough cells to score	inactive
35	Aacs	0.99	1.67	1.67	enough cells to score	inactive
36	Edn1	-0.09	1.73	1.34	enough cells to score	inactive
37	Amd2	-1.44	1.36	1.49	enough cells to score	inactive
38	Havcr1	-0.1	1.32	1.46	enough cells to score	inactive
39	AW209491	0.71	1.59	1.73	enough cells to score	inactive
40	Ctsll3	-0.72	1.32	1.17	enough cells to score	inactive
41	Derl1	-0.75	1.44	1.34	enough cells to score	inactive
42	Hunk	-1.43	0	1.2	enough cells to score	inactive
43	Suv39h1	-1.2	1.37	1.39	enough cells to score	inactive
44	Spata1	0.46	1.38	1.3	enough cells to score	inactive
45	Mkks	0.84	1.53	1.47	enough cells to score	inactive
46	Tbx21	-1.46	1.29	1.34	enough cells to score	inactive
47	Ndufv1	-1.24	1.58	1.41	enough cells to score	inactive
48	Spout1	-1.5	1.35	1.34	enough cells to score	inactive
49	Vcan	-0.8	1.39	1.26	enough cells to score	inactive
50	Pcdhb7	0.14	1.46	1.18	enough cells to score	inactive
51	Prr5l	0.19	1.43	1.26	enough cells to score	inactive
52	Calm3	-0.55	1.58	1.33	enough cells to score	inactive
53	Liat1	-0.33	1.62	1.53	enough cells to score	inactive
54	Mefv	2.07	1.73	1.59	enough cells to score	inactive
55	Vmn1r200	-0.09	1.37	1.23	enough cells to score	inactive
56	Gabrr1	-0.75	1.34	1.27	enough cells to score	inactive
57	E030011O05Rik		1.32	1.37	fewer than 50 cells per well; well left out of scoring	inactive
58	9330169L03Rik	0.68	1.44	1.64	enough cells to score	inactive
59	Olah	-0.43	1.45	1.47	enough cells to score	inactive
